Publication PMC12041782
No constants are given. Whether binding was seen depends on the method and setting. Binding seen in cells or lysates may run through a third protein. Here binding means that the protein was enriched with, or labelled near, the bait; the list need not be complete.

The chains behind the UniProt entries cited, without tags or fusion partners. Residues count along the entry.
UniProt Q9BZS1, residues 1-417: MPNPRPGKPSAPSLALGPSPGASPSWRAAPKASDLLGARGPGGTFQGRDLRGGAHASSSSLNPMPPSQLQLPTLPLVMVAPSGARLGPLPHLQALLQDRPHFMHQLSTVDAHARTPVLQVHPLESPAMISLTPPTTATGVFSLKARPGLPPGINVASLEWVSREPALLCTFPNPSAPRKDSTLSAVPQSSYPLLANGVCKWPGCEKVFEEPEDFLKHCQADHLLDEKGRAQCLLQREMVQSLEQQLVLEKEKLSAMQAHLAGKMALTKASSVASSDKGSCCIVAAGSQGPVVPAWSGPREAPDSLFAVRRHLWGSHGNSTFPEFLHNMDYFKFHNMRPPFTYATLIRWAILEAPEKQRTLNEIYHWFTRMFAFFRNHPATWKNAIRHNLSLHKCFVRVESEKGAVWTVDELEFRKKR
UniProt P51114: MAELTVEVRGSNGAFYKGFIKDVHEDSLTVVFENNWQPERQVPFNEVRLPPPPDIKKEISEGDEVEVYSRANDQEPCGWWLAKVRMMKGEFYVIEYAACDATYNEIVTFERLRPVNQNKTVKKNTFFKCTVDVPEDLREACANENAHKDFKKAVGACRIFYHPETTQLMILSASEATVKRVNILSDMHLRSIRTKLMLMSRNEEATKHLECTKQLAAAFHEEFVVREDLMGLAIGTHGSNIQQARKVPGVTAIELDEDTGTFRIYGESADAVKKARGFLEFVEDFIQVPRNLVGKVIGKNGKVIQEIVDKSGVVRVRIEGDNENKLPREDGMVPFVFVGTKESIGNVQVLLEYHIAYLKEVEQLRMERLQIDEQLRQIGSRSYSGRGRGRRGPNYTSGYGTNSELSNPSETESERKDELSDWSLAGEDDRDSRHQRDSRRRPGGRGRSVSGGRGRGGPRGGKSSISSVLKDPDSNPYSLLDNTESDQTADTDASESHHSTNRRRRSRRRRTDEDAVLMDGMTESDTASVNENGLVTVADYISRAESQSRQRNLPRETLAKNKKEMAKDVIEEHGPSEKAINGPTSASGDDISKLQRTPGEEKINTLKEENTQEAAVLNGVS
UniProt P51116: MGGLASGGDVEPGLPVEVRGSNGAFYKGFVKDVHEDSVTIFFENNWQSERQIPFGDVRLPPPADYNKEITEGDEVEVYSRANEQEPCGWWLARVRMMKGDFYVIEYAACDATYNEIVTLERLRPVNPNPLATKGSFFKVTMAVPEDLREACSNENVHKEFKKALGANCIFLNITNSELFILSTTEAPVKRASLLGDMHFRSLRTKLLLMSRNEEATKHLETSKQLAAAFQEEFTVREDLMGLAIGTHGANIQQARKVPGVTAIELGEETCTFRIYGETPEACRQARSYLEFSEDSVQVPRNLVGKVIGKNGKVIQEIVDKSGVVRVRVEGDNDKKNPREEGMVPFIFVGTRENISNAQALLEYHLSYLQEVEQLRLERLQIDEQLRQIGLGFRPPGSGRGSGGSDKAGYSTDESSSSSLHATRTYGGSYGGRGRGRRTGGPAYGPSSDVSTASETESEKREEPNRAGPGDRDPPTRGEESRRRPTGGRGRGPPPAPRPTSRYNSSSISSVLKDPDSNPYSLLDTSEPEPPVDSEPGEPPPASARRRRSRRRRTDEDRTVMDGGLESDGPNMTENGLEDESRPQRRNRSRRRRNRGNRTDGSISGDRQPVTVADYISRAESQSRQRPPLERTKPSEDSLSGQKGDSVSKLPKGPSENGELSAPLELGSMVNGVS

Molecular target: forkhead box P3 (FOXP3), endogenous in HEK293T cells (human (endogenous in HEK293T)) (UniProt Q9BZS1)
Test: affinity purification with mass spectrometry; HEK293T lysate in non-denaturing lysis buffer; anti-FOXP3 antibody with protein A/G magnetic beads; LC-MS/MS; IgG precipitate as negative control

Substance | binding
FMR1 autosomal homolog 1 (FXR1), endogenous in HEK293T cells (from UniProt P51114 1-621) | binds
FXR2, endogenous in HEK293T cells (from UniProt P51116 1-673) | binds
